The text below walks through data of article PMC10272136, “Molecular mechanisms of Holliday junction branch migration catalyzed by an asymmetric RuvB hexamer” (Nature Communications, 2022).

This test deals with Thermus thermophilus RuvB (Thermus thermophilus) (UniProt Q5SL87). Nature of the test: SEC; RuvB alone, without DNA; Superdex 200 10/300 GL Increase, 20 mM Tris-HCl pH 7.5, 150 mM NaCl; both purified.

These are yes or no findings as the source states them, for the method shown.

B1: Thermus thermophilus RuvB (enzyme, UniProt Q5SL87 1-324, looked up)
chain: MEDLALRPKTLDEYIGQERLKQKLRVYLEAAKARKEPLEHLLLFGPPGLGKTTLAHVIAHELGVNLRVTSGPAIEKPGDLAAILANSLEEGDILFIDEIHRLSRQAEEHLYPAMEDFVMDIVIGQGPAARTIRLELPRFTLIGATTRPGLITAPLLSRFGIVEHLEYYTPEELAQGVMRDARLLGVRITEEAALEIGRRSRGTMRVAKRLFRRVRDFAQVAGEEVITRERALEALAALGLDELGLEKRDREILEVLILRFGGGPVGLATLATALSEDPGTLEEVHEPYLIRQGLLKRTPRGRVATELAYRHLGYPPPVGPLLEP
notes: RuvB, Holliday junction branch migration ATPase (AAA+), Thermus thermophilus; printed MW 35,973; Purified RuvB carried endogenous ADP (native mass spectrometry); It forms the hexamer and dodecamer only in the sample with DNA and ATPγS; also called T. thermophilus RuvB; RuvB protomer; source: E. coli BL21(DE3) RipL, purified (heat step at 55 °C, Ni-NTA, Superdex 200 gel filtration)
Consider B1, for which the binding result is “no binding (condition: RuvB alone, without DNA)”.
